# Results reported in the supplement of paper PMC8728848.
# The other results are listed elsewhere or left out.
# How the values were obtained:
# Experiment in all cases: glycan array binding signal (z-score within array); higher = stronger binding
# Conditions in all cases: glycan notation: IUPAC condensed, linker removed
# [1] = biological target: Gal(b1-3)GlcNAc(b1-6)GalNAc
# Procedure, shortened: (§1)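 Columns mapping to the same glycan were averaged after glycan names were converted to IUPAC-condensed notation. The data come from 3228 arrays in the Consortium for Functional Glycomics database, limited to those with an available protein sequence. Binding is reported as a within-array Z-score averaged across arrays of one protein sequence and across linkers.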
# [2] = biological target: Gal(b1-3)GlcNAc(b1-6)[Gal(b1-3)]GalNAc
# Procedure, shortened: as §1
# [3] = biological target: Gal(b1-3)GlcNAc6S
# Procedure, shortened: as §1
# [4] = biological target: Gal(b1-3)[Fuc(a1-4)]GlcNAc
# Procedure, shortened: as §1
# [5] = biological target: Gal(b1-3)[Fuc(a1-4)]GlcNAc(b1-2)Man
# Procedure, shortened: as §1
# [6] = biological target: Gal(b1-3)[Fuc(a1-4)]GlcNAc(b1-2)Man(a1-3)[Gal(b1-3)[Fuc(a1-4)]GlcNAc(b1-2)Man(a1-6)]Man(b1-4)GlcNAc(b1-4)[Fuc(a1-6)]GlcNAc
# Procedure, shortened: as §1
# [7] = biological target: Gal(b1-3)[Fuc(a1-4)]GlcNAc(b1-3)Gal(b1-3)[Fuc(a1-4)]GlcNAc
# Procedure, shortened: as §1
# [8] = biological target: Gal(b1-3)[Fuc(a1-4)]GlcNAc(b1-3)Gal(b1-4)[Fuc(a1-3)]GlcNAc
# Procedure, shortened: as §1
# [9] = biological target: Gal(b1-3)[Fuc(a1-4)]GlcNAc(b1-6)GalNAc
# Procedure, shortened: as §1
# [10] = biological target: Gal(b1-3)[GlcNAc(b1-6)]GalNAc
# Procedure, shortened: as §1
# [11] = biological target: Gal(b1-3)[Neu5Ac(a2-6)]GalNAc
# Procedure, shortened: as §1
# [12] = biological target: Gal(b1-3)[Neu5Ac(a2-6)]GlcNAc(b1-4)Gal(b1-4)Glc
# Procedure, shortened: as §1
# [13] = biological target: Gal(b1-3)[Neu5Ac(b2-6)]GalNAc
# Procedure, shortened: as §1
# [14] = biological target: Gal(b1-4)Gal
# Procedure, shortened: as §1
# [15] = biological target: Gal(b1-4)GalNAc(a1-3)[Fuc(a1-2)]Gal(b1-4)GlcNAc
# Procedure, shortened: as §1
# [16] = biological target: Gal(b1-4)GalNAc(b1-3)[Fuc(a1-2)]Gal(b1-4)GlcNAc
# Procedure, shortened: as §1
# [17] = biological target: Gal(b1-4)Glc
# Procedure, shortened: as §1
# [18] = biological target: Gal(b1-4)Glc6S
# Procedure, shortened: as §1
# [19] = biological target: Gal(b1-4)GlcNAc
# Procedure, shortened: as §1
# [20] = biological target: Gal(b1-4)GlcNAc(a1-6)Gal(b1-4)GlcNAc
# Procedure, shortened: as §1
# [21] = biological target: Gal(b1-4)GlcNAc(b1-2)Man
# Procedure, shortened: as §1
# [22] = biological target: Gal(b1-4)GlcNAc(b1-2)Man(a1-3)Man(b1-4)GlcNAc(b1-4)GlcNAc
# Procedure, shortened: as §1
# [23] = biological target: Gal(b1-4)GlcNAc(b1-2)Man(a1-3)[Gal(b1-4)GlcNAc(b1-2)Man(a1-6)]Man(b1-4)GlcNAc(b1-4)GlcNAc
# Procedure, shortened: as §1
# [24] = biological target: Gal(b1-4)GlcNAc(b1-2)Man(a1-3)[Gal(b1-4)GlcNAc(b1-2)Man(a1-6)]Man(b1-4)GlcNAc(b1-4)[Fuc(a1-6)]GlcNAc
# Procedure, shortened: as §1
# [25] = biological target: Gal(b1-4)GlcNAc(b1-2)Man(a1-3)[Gal(b1-4)GlcNAc(b1-2)Man(a1-6)][Gal(b1-4)GlcNAc(b1-4)]Man(b1-4)GlcNAc(b1-4)[Fuc(a1-6)]GlcNAc
# Procedure, shortened: as §1
# [26] = biological target: Gal(b1-4)GlcNAc(b1-2)Man(a1-3)[Gal(b1-4)GlcNAc(b1-2)Man(a1-6)][GlcNAc(b1-4)]Man(b1-4)GlcNAc(b1-4)[Fuc(a1-6)]GlcNAc
# Procedure, shortened: as §1
# [27] = biological target: Gal(b1-4)GlcNAc(b1-2)Man(a1-3)[GlcNAc(b1-2)Man(a1-6)]Man(b1-4)GlcNAc(b1-4)GlcNAc
# Procedure, shortened: as §1
# [28] = biological target: Gal(b1-4)GlcNAc(b1-2)Man(a1-3)[GlcNAc(b1-4)][Gal(b1-4)GlcNAc(b1-2)Man(a1-6)]Man(b1-4)GlcNAc(b1-4)GlcNAc
# Procedure, shortened: as §1
# [29] = biological target: Gal(b1-4)GlcNAc(b1-2)Man(a1-3)[Man(a1-6)]Man(b1-4)GlcNAc(b1-4)GlcNAc
# Procedure, shortened: as §1
# [30] = biological target: Gal(b1-4)GlcNAc(b1-2)Man(a1-6)Man(b1-4)GlcNAc(b1-4)GlcNAc
# Procedure, shortened: as §1
# [31] = biological target: Gal(b1-4)GlcNAc(b1-2)Man(a1-6)[GlcNAc(b1-2)Man(a1-3)]Man(b1-4)GlcNAc(b1-4)GlcNAc
# Procedure, shortened: as §1
# [32] = biological target: Gal(b1-4)GlcNAc(b1-2)Man(a1-6)[Man(a1-3)]Man(b1-4)GlcNAc(b1-4)GlcNAc
# Procedure, shortened: as §1
# [33] = biological target: Gal(b1-4)GlcNAc(b1-2)[Gal(b1-4)GlcNAc(b1-4)]Man(a1-3)[Gal(b1-4)GlcNAc(b1-2)Man(a1-6)]Man(b1-4)GlcNAc(b1-4)GlcNAc
# Procedure, shortened: as §1
# [34] = biological target: Gal(b1-4)GlcNAc(b1-2)[Gal(b1-4)GlcNAc(b1-4)]Man(a1-3)[Gal(b1-4)GlcNAc(b1-2)[Gal(b1-4)GlcNAc(b1-6)]Man(a1-6)]Man(b1-4)GlcNAc(b1-4)GlcNAc
# Procedure, shortened: as §1
# [35] = biological target: Gal(b1-4)GlcNAc(b1-2)[Gal(b1-4)GlcNAc(b1-4)]Man(a1-3)[GlcNAc(b1-4)][Gal(b1-4)GlcNAc(b1-2)Man(a1-6)]Man(b1-4)GlcNAc(b1-4)GlcNAc
# Procedure, shortened: as §1
# [36] = biological target: Gal(b1-4)GlcNAc(b1-2)[Gal(b1-4)GlcNAc(b1-4)]Man(a1-3)[GlcNAc(b1-4)][Gal(b1-4)GlcNAc(b1-2)[Gal(b1-4)GlcNAc(b1-6)]Man(a1-6)]Man(b1-4)GlcNAc(b1-4)GlcNAc
# Procedure, shortened: as §1
# [37] = biological target: Gal(b1-4)GlcNAc(b1-2)[Gal(b1-4)GlcNAc(b1-6)]Man(a1-6)[Gal(b1-4)GlcNAc(b1-2)Man(a1-3)]Man(b1-4)GlcNAc(b1-4)GlcNAc
# Procedure, shortened: as §1
# [38] = biological target: Gal(b1-4)GlcNAc(b1-2)[Gal(b1-4)GlcNAc(b1-6)]Man(a1-6)[Gal(b1-4)GlcNAc(b1-2)Man(a1-3)]Man(b1-4)GlcNAc(b1-4)[Fuc(a1-6)]GlcNAc
# Procedure, shortened: as §1
# [39] = biological target: Gal(b1-4)GlcNAc(b1-2)[Gal(b1-4)GlcNAc(b1-6)]Man(a1-6)[GlcNAc(b1-4)][Gal(b1-4)GlcNAc(b1-2)Man(a1-3)]Man(b1-4)GlcNAc(b1-4)GlcNAc
# Procedure, shortened: as §1
# [40] = biological target: Gal(b1-4)GlcNAc(b1-2)[Gal(b1-4)GlcNAc(b1-6)]Man(a1-6)[GlcNAc(b1-4)][Gal(b1-4)GlcNAc(b1-2)[Gal(b1-4)GlcNAc(b1-4)]Man(a1-3)]Man(b1-4)GlcNAc(b1-4)[Fuc(a1-6)]GlcNAc
# Procedure, shortened: as §1
# [41] = biological target: Gal(b1-4)GlcNAc(b1-3)Gal(b1-3)GalNAc
# Procedure, shortened: as §1
# [42] = biological target: Gal(b1-4)GlcNAc(b1-3)Gal(b1-3)GlcNAc
# Procedure, shortened: as §1
# [43] = biological target: Gal(b1-4)GlcNAc(b1-3)Gal(b1-4)Glc
# Procedure, shortened: as §1
# [44] = biological target: Gal(b1-4)GlcNAc(b1-3)Gal(b1-4)GlcNAc
# Procedure, shortened: as §1
# [45] = biological target: Gal(b1-4)GlcNAc(b1-3)Gal(b1-4)GlcNAc(b1-2)Man(a1-3)[Gal(b1-4)GlcNAc(b1-3)Gal(b1-4)GlcNAc(b1-2)Man(a1-6)]Man(b1-4)GlcNAc(b1-4)GlcNAc
# Procedure, shortened: as §1
binder,measurement,setting,value
"XTP3-B-MRH2 (Homo sapiens), Q96DZ1 (protein) EFLSGSYCFRGGVGWWKYEFCYGKHVHQYHEDKDSGKTSVVVGTWNQEEHIEWAKKNTARAYHLQDDGTQTVRMVSHFYGNGDICDITDKPRQVTVKLKCKESDSPHAVTVYMLEPHSCQYILGVESPVICKILDTA",glycan array binding signal (z-score),[1],-0.003
same,glycan array binding signal (z-score),[2],0.812
same,glycan array binding signal (z-score),[3],-0.844
same,glycan array binding signal (z-score),[4],-0.521
same,glycan array binding signal (z-score),[5],-1.08
same,glycan array binding signal (z-score),[6],1.37
same,glycan array binding signal (z-score),[7],3.38
same,glycan array binding signal (z-score),[8],0.827
same,glycan array binding signal (z-score),[9],-0.084
same,glycan array binding signal (z-score),[10],-0.193
same,glycan array binding signal (z-score),[11],0.695
same,glycan array binding signal (z-score),[12],-0.183
same,glycan array binding signal (z-score),[13],-1.04
same,glycan array binding signal (z-score),[14],-0.14
same,glycan array binding signal (z-score),[15],-0.932
same,glycan array binding signal (z-score),[16],-0.814
same,glycan array binding signal (z-score),[17],-0.594
same,glycan array binding signal (z-score),[18],-0.805
same,glycan array binding signal (z-score),[19],0.365
same,glycan array binding signal (z-score),[20],-0.34
same,glycan array binding signal (z-score),[21],0.283
same,glycan array binding signal (z-score),[22],0.539
same,glycan array binding signal (z-score),[23],1.04
same,glycan array binding signal (z-score),[24],-0.773
same,glycan array binding signal (z-score),[25],0.353
same,glycan array binding signal (z-score),[26],-0.45
same,glycan array binding signal (z-score),[27],0.26
same,glycan array binding signal (z-score),[28],-0.219
same,glycan array binding signal (z-score),[29],-0.398
same,glycan array binding signal (z-score),[30],-0.196
same,glycan array binding signal (z-score),[31],-1.09
same,glycan array binding signal (z-score),[32],2.47
same,glycan array binding signal (z-score),[33],-0.599
same,glycan array binding signal (z-score),[34],-0.455
same,glycan array binding signal (z-score),[35],-0.36
same,glycan array binding signal (z-score),[36],-0.691
same,glycan array binding signal (z-score),[37],-0.993
same,glycan array binding signal (z-score),[38],-0.776
same,glycan array binding signal (z-score),[39],0.887
same,glycan array binding signal (z-score),[40],-0.209
same,glycan array binding signal (z-score),[41],-0.252
same,glycan array binding signal (z-score),[42],0.052
same,glycan array binding signal (z-score),[43],1.56
same,glycan array binding signal (z-score),[44],0.386
same,glycan array binding signal (z-score),[45],3.21

# 2 neighbouring records out of the list so far, for reference:
binder,measurement,setting,value
"XTP3-B-MRH2 (Homo sapiens), Q96DZ1 (protein) EFLSGSYCFRGGVGWWKYEFCYGKHVHQYHEDKDSGKTSVVVGTWNQEEHIEWAKKNTARAYHLQDDGTQTVRMVSHFYGNGDICDITDKPRQVTVKLKCKESDSPHAVTVYMLEPHSCQYILGVESPVICKILDTA",glycan array binding signal (z-score),[4],-0.521
same,glycan array binding signal (z-score),[5],-1.08
